Source: US20120082667A1
Results are given in words; binding and its absence hold for the method and conditions named. Some entries that bind do so weakly or less than the wild type.

Chains of the proteins cited; added tags and fusions are not shown. Residues count along the entry.
UniProt P05067, residues 672-713: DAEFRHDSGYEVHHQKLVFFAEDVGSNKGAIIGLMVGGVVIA

Target: synthesized A beta1-42 (UniProt P05067)
Assay: dot blot, synthesized A beta1-42 spotted, hybridoma supernatant

binding: binds
B1: AL-201 antibody (antibody, IgG2b, V domains shown)
VH: QVQLQQPGAELVKPGASVKLSCKASGYTFTSYWMHWVKQRPGQGLEWIGEINPSNGRTNYNEKFKSKATLTVDKSSSTAYMQLSSLTSEDSAVYYCARQGYRHGVFAYWGQGTLVTVSA
VL: SIVMTQTPKFLLVSAGDRVTITCKASQSVSNDVAWYQQKPGQSPKLLIYYASNRYTGVPDRFTGSGYGTDFTFTISTVQAEDLAVYFCQQDYSSPTFGAGTKLELK
